Reference: patent US7385395B2, “Apparatus for preparing a solution of a hyperpolarized noble gas for NMR and MRI analysis” (priority 1996, dated 2008)

Test: 129Xe-1H SPINOE cross-relaxation (xenon coupling/binding to molecules in solution)

Row | Compound | ratio of the cross-relaxation rates of α-cyclodextrin and p-nitrotoluene (SPINOE with laser-polarized xenon, α-cyclodextrin in perdeuterated DMSO) | xenon coupling constants relative to α-cyclodextrin (SPINOE)
1 | OC[C@H]1O[C@@H]2O[C@H]3[C@H](O)[C@@H](O)[C@@H](O[C@H]4[C@H](O)[C@@H](O)[C@@H](O[C@H]5[C@H](O)[C@@H](O)[C@@H](O[C@H]6[C@H](O)[C@@H](O)[C@@H](O[C@H]7[C@H](O)[C@@H](O)[C@@H](O[C@H]1[C@H](O)[C@H]2O)O[C@@H]7CO)O[C@@H]6CO)O[C@@H]5CO)O[C@@H]4CO)O[C@@H]3CO [α-cyclodextrin] | approximately 100 | –
2 | OC[C@H]1O[C@@H]2O[C@H]3[C@H](O)[C@@H](O)[C@@H](O[C@H]4[C@H](O)[C@@H](O)[C@@H](O[C@H]5[C@H](O)[C@@H](O)[C@@H](O[C@H]6[C@H](O)[C@@H](O)[C@@H](O[C@H]7[C@H](O)[C@@H](O)[C@@H](O[C@H]8[C@H](O)[C@@H](O)[C@@H](O[C@H]1[C@H](O)[C@H]2O)O[C@@H]8CO)O[C@@H]7CO)O[C@@H]6CO)O[C@@H]5CO)O[C@@H]4CO)O[C@@H]3CO [β-cyclodextrin] | – | two orders of magnitude smaller
